At least one structure is not confirmed: it was looked up by name or label, or the drawing left a doubt.
Assay: Stability on open storage away from light, weight ratio of coenzyme QH and oxidized coenzyme Q10 analyzed by HPLC
Format: physicochemical
Details: open stored away from light, 25° C./60% relative humidity

SMILES: COc1c(O)c(C)c(C/C=C(\C)CC/C=C(\C)CC/C=C(\C)CC/C=C(\C)CC/C=C(\C)CC/C=C(\C)CC/C=C(\C)CC/C=C(\C)CC/C=C(\C)CCC=C(C)C)c(O)c1OC [Example 1, coenzyme QH]
- Weight ratio of coenzyme QH and oxidized coenzyme Q10 (Day 0): 99.2.0/0.8
- Weight ratio of coenzyme QH and oxidized coenzyme Q10 (Day 3): 91.4/8.6
- Weight ratio of coenzyme QH and oxidized coenzyme Q10 (Day 7): 85.9/14.1
- Weight ratio of coenzyme QH and oxidized coenzyme Q10 (Day 14): 71.2/28.8

Source: patent publication US12715832B2, “Co-crystal of coenzyme QH and nicotinamide, preparation method therefor and use thereof” (COCRYSTAL TECHNOLOGY (JIAXING) CO., LTD, priority 2021, dated 2026)
